One assay concerns the target GFP:RAB21-WT (UniProt Q9UL25). The assay can be described thus: co-IP; GFP:RAB21 immunoprecipitation blotted for TGN38 (Fig. S1B); cell line not given.
The target in the next assay is GST:RAB21 (UniProt Q9UL25). The assay can be described thus: pull-down; GST:RAB21 beads incubated with HeLa cell lysate, 1 h at 4°C, MLB modified buffer (1% IGEPAL CA-630, 100 µM GTP, 25 mM HEPES, 150 mM NaCl, 20 mM MgCl2); blots; only the target purified.
Assay [1] addresses GST:RAB21-Q78L (GTP-bound) (UniProt Q9UL25). Described as above.

Sequences of proteins named here, by UniProt entry; tags and fusion partners are left off. A change or cut given only in a name is not applied to a line headed by its entry. Residues count along the entry.
UniProt Q9UL25: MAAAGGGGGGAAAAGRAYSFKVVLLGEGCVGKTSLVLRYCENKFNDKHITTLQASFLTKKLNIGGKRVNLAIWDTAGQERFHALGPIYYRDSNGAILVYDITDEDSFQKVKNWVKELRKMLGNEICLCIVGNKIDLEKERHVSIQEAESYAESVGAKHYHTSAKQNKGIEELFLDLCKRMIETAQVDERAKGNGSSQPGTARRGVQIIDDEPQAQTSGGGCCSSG
UniProt O43493, residues 22-437: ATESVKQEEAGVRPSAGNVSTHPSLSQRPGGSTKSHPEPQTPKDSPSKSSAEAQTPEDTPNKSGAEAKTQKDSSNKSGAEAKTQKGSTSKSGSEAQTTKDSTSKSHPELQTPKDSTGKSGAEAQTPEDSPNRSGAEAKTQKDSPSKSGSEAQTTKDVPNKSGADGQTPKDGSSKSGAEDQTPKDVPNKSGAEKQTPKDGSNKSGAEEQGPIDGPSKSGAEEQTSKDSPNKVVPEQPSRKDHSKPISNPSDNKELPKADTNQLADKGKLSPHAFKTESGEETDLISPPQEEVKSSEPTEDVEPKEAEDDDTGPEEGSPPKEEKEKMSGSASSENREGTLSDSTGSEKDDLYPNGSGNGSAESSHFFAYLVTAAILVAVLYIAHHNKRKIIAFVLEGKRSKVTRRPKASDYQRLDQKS
UniProt Q15363, residues 21-201: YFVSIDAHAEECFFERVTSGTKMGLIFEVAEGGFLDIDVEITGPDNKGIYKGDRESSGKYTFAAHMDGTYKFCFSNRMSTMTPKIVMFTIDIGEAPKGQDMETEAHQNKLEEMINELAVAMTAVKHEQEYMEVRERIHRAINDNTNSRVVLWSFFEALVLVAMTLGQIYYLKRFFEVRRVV

Results are given in words; binding and its absence hold for the method and conditions named. Binding seen in cells or lysates may run through a third protein.

In the case of TGN38 (from UniProt O43493 22-437), in the assay with GFP:RAB21-WT, the binding entry is on record as “no binding”.

Regarding TMED2 (from UniProt Q15363 21-201), the binding entry (with GST:RAB21; in assay [1]) was “no binding” in each case.

B1: endogenous TMED10 (protein, UniProt P49755 32-219)
chain: ISFHLPINSRKCLREEIHKDLLVTGAYEISDQSGGAGGLRSHLKITDSAGHILYSKEDATKGKFAFTTEDYDMFEVCFESKGTGRIPDQLVILDMKHGVEAKNYEEIAKVEKLKPLEVELRRLEDLSESIVNDFAYMKKREEEMRDTNESTNTRVLYFSIFSMFCLIGLATWQVFYLRRFFKAKKLIE
As for B1, the binding result (with GST:RAB21; in assay [1]) was “no binding” each time.
